Data source: PubChem BioAssay AID1259254 (NCATS, 2017)

Aim: 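Genome-wide screen for genes that prevent DNA re-replication in cancer cells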 (primary screen)
Cell system: human HCT116 colorectal cancer cells
Knock-down reagent: single siRNA against human genes
Timing: 3 days
Read-out: 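Imaged Hoechst DNA stain sorts each cell into a cycle phase by DNA amount; per plate, G2 fraction set to 0% for non-targeting and 100% for GMNN siRNA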
Reading the numbers: G2 robust z-score: higher = more G2 cells, more excess DNA replication
Active means: 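Active siRNAs have a G2 robust z of 5 or more median absolute deviations over the median, which in these data means about 38% or higher of GMNN control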
Shown is one part, drawn at random, of about 59,000 deposited reagents. Over the whole deposit, about 1,550 (2.6%) were called active. 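G2 share is only a proxy for re-replication; each gene was hit by three separate siRNAs, and active genes were retested.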 Entries without a mark were called inactive. Further read-outs or replicates are left out here. Reagent sequences are not shown. Not given: the amount of reagent.

After knock-down of ASB15 [SID160757979], the record shows G2 robust z-score -1.18. Silencing of ASB15 [SID160757980] gave: G2 robust z-score 0.402. After knock-down of ASB15 [SID160757981], the record shows G2 robust z-score -0.302. For SYDE1 [SID160753202] the deposit lists G2 robust z-score 0.559. Silencing of SYDE1 [SID160753203] resulted in: G2 robust z-score 1.2. Knock-down of SYDE1 [SID160753204] gave: G2 robust z-score -0.286.

Against AKR1C8 [SID160764490], the entry reads G2 robust z-score 1.3. AKR1C8 [SID160764491] scored G2 robust z-score 0.14. AKR1C8 [SID160764492] gave G2 robust z-score -0.34. IDI2 [SID160754077] gave G2 robust z-score 0.33. For IDI2 [SID160754078] the deposit lists G2 robust z-score 0.67. For IDI2 [SID160754079], the entry reads G2 robust z-score 0.166.
